Results reported in publication PMC4145083.
No constants are given. Whether binding was seen depends on the method and setting. In cells and extracts the contact can be indirect. Some binding calls cover weakened binding; strength is not graded here.

Sequences of proteins named here, by UniProt entry; tags and fusion partners are left off. Residues count along the entry.
UniProt Q9Y6N7, residues 26-1651: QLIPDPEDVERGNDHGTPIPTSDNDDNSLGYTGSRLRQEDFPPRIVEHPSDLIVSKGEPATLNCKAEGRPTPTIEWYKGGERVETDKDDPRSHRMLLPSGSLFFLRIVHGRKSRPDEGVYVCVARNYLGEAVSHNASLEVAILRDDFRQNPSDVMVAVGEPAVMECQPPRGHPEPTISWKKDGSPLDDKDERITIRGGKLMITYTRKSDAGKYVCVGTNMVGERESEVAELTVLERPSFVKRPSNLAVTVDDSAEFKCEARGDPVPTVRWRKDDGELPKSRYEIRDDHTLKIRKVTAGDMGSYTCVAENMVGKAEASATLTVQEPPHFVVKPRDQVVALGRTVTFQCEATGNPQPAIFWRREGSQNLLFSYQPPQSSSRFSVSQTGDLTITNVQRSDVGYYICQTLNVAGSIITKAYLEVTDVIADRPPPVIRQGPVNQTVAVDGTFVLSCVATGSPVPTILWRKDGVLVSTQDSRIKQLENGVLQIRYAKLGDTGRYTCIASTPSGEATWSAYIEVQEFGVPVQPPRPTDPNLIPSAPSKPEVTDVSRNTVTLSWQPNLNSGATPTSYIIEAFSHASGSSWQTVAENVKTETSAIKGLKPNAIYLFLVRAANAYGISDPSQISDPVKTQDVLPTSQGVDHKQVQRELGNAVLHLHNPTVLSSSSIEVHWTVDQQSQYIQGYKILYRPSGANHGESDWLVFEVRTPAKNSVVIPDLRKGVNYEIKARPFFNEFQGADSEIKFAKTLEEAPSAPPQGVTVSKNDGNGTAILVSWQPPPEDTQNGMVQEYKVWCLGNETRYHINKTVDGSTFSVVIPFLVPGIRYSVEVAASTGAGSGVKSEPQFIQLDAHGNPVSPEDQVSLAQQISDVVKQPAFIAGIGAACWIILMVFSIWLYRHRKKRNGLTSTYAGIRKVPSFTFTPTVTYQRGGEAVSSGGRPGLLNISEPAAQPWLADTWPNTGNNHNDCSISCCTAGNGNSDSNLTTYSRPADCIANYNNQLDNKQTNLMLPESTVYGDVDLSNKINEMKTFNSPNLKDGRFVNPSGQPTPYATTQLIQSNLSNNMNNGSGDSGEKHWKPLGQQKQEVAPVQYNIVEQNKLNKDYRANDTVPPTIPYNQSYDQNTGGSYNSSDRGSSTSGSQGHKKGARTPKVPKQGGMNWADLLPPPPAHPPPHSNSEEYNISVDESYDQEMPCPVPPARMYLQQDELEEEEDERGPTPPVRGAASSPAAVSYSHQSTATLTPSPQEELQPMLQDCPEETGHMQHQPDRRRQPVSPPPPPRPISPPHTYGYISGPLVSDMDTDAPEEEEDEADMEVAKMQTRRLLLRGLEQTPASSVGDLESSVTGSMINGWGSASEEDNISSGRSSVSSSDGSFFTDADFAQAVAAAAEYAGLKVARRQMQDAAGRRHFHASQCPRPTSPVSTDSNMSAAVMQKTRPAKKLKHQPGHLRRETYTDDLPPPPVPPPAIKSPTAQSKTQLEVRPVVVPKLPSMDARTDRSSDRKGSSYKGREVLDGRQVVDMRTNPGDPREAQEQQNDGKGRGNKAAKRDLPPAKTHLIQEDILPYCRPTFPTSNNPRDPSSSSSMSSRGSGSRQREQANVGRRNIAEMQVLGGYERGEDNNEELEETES

Target: Robo1 (Roundabout 1) (human (endogenous in H1299)) (UniProt Q9Y6N7)
Assay: co-IP; endogenous proteins; H1299 cell lysates (0.5% NP-40, 50 mmol/L Tris pH 7.5, 150 mmol/L NaCl, 1 mmol/L EDTA) precipitated with anti-Robo1 or control IgG, blotted with anti-USP33; cells in the presence of mock-control or Slit

- binding: binds
B1: Ubiquitin specific protease 33 (USP33) (enzyme, UniProt Q8TEY7 1-942)
chain: MTGSNSHITILTLKVLPHFESLGKQEKIPNKMSAFRNHCPHLDSVGEITKEDLIQKSLGTCQDCKVQGPNLWACLENRCSYVGCGESQVDHSTIHSQETKHYLTVNLTTLRVWCYACSKEVFLDRKLGTQPSLPHVRQPHQIQENSVQDFKIPSNTTLKTPLVAVFDDLDIEADEEDELRARGLTGLKNIGNTCYMNAALQALSNCPPLTQFFLDCGGLARTDKKPAICKSYLKLMTELWHKSRPGSVVPTTLFQGIKTVNPTFRGYSQQDAQEFLRCLMDLLHEELKEQVMEVEEDPQTITTEETMEEDKSQSDVDFQSCESCSNSDRAENENGSRCFSEDNNETTMLIQDDENNSEMSKDWQKEKMCNKINKVNSEGEFDKDRDSISETVDLNNQETVKVQIHSRASEYITDVHSNDLSTPQILPSNEGVNPRLSASPPKSGNLWPGLAPPHKKAQSASPKRKKQHKKYRSVISDIFDGTIISSVQCLTCDRVSVTLETFQDLSLPIPGKEDLAKLHSSSHPTSIVKAGSCGEAYAPQGWIAFFMEYVKRFVVSCVPSWFWGPVVTLQDCLAAFFARDELKGDNMYSCEKCKKLRNGVKFCKVQNFPEILCIHLKRFRHELMFSTKISTHVSFPLEGLDLQPFLAKDSPAQIVTYDLLSVICHHGTASSGHYIAYCRNNLNNLWYEFDDQSVTEVSESTVQNAEAYVLFYRKSSEEAQKERRRISNLLNIMEPSLLQFYISRQWLNKFKTFAEPGPISNNDFLCIHGGVPPRKAGYIEDLVLMLPQNIWDNLYSRYGGGPAVNHLYICHTCQIEAEKIEKRRKTELEIFIRLNRAFQKEDSPATFYCISMQWFREWESFVKGKDGDPPGPIDNTKIAVTKCGNVMLRQGADSGQISEETWNFLQSIYGGGPEVILRPPVVHVDPDILQAEEKIEVETRSL
